Measurements taken from patent publication US20250222065A1, “CYCLIC POLYPEPTIDE FOR THE TREATMENT OF PHA TYPE 1B” (priority 2015, published 2025).
At least one compound was matched to its structure with a doubt left.

Protein sequences, listed by entry. Tags and fused reporters are not part of them. Lines headed by an entry give the natural chain unless they say otherwise; changes in a name come on top.
UniProt P51172: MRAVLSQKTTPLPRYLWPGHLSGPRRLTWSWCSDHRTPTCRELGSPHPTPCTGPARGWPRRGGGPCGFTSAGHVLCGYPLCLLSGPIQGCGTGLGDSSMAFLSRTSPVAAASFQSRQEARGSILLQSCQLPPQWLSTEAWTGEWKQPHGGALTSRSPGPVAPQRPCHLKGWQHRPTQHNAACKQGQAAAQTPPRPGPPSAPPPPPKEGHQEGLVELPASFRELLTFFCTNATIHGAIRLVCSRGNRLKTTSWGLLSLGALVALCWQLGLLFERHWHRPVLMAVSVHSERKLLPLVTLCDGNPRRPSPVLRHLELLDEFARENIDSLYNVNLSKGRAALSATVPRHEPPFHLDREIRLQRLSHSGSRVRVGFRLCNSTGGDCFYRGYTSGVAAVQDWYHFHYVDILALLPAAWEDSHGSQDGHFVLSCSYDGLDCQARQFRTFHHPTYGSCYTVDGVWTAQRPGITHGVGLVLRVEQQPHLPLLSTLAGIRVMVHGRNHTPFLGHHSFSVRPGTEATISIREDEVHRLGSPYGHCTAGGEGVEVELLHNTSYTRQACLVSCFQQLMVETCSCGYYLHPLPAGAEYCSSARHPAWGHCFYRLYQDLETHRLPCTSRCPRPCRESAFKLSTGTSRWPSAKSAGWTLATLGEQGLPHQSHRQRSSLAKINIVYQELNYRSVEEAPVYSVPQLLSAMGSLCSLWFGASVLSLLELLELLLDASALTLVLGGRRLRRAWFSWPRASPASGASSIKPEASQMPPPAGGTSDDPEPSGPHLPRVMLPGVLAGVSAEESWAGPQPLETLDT

Tests used:
δG303Cβγ hENaC = target: T1, δG303Cβγ hENaC (Homo sapiens, UniProt P51168+P51170+P51172, G467C); assay: Whole cell patch clamp, HEK-293 cells expressing mutant δG303Cβγ-hENaC; assay type: cell-based; settings: HEK-293, whole cell patch clamp; no-peptide current: loss-of-function
T1 construct: expressed in transfected cells; host or cells: HEK-293
T1 sequence (P51172 1-638 isoform P51172-1 G303C): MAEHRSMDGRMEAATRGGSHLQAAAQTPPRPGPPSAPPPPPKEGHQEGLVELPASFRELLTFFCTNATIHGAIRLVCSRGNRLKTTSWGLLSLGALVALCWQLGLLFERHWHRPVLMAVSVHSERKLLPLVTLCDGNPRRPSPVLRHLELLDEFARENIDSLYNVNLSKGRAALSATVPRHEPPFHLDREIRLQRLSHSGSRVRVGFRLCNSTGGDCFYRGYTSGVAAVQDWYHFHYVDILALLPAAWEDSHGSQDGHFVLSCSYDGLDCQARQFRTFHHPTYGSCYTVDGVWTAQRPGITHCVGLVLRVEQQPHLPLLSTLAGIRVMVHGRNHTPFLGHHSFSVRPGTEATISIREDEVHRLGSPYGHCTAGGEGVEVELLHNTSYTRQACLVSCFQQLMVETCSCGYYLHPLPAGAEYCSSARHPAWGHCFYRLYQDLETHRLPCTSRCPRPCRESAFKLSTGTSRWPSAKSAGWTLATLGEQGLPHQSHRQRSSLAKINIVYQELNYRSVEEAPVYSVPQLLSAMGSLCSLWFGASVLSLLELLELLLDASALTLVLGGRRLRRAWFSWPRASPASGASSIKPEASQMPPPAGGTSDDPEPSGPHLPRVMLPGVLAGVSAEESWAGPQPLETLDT
T1 sequence (P51168 1-640): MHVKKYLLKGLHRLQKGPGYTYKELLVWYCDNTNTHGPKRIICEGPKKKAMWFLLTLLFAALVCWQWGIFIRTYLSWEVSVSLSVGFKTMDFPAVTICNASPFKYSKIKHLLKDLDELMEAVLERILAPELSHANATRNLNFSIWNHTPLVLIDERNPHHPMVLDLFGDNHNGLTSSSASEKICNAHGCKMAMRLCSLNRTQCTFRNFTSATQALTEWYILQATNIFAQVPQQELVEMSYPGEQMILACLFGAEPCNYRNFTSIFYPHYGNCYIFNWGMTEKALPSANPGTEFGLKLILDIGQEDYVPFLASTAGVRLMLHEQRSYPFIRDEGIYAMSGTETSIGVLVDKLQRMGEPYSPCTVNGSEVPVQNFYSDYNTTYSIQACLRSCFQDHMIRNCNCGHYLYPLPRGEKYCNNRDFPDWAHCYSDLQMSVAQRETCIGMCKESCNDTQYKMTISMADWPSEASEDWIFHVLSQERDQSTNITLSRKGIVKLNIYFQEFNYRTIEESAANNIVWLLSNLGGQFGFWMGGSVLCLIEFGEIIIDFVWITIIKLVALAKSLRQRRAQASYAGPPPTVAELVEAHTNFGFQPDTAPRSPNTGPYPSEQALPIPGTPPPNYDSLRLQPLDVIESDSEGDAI
T1 sequence (P51170 1-649): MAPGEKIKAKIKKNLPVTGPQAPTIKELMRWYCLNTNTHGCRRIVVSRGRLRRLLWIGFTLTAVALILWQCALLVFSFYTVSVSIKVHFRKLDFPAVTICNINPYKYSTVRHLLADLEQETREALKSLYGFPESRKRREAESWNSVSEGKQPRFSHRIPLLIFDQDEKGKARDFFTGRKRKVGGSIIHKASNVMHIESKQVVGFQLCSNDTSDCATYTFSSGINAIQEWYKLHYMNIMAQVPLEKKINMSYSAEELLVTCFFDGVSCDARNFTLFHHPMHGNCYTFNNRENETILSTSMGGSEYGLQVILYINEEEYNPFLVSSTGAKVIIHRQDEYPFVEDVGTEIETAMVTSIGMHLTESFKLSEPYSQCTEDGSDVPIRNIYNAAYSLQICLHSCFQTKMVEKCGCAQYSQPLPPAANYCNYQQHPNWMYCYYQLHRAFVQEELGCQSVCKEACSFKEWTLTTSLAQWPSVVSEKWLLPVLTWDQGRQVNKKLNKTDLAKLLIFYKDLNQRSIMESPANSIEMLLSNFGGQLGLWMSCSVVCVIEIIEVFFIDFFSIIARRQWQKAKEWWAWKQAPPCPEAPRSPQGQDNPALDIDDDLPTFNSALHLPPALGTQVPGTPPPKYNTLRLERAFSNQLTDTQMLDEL

αQ101Kβγ-hENaC = target: T2, αQ101Kβγ-hENaC (Homo sapiens, UniProt P37088+P51168+P51170, Q101K); assay: Whole cell patch clamp, HEK-293 cells expressing PHA type IB mutant αQ101Kβγ-hENaC; assay type: cell-based
T2 construct: expressed in transfected cells; host or cells: HEK-293
T2 sequence (P37088 1-669 Q101K): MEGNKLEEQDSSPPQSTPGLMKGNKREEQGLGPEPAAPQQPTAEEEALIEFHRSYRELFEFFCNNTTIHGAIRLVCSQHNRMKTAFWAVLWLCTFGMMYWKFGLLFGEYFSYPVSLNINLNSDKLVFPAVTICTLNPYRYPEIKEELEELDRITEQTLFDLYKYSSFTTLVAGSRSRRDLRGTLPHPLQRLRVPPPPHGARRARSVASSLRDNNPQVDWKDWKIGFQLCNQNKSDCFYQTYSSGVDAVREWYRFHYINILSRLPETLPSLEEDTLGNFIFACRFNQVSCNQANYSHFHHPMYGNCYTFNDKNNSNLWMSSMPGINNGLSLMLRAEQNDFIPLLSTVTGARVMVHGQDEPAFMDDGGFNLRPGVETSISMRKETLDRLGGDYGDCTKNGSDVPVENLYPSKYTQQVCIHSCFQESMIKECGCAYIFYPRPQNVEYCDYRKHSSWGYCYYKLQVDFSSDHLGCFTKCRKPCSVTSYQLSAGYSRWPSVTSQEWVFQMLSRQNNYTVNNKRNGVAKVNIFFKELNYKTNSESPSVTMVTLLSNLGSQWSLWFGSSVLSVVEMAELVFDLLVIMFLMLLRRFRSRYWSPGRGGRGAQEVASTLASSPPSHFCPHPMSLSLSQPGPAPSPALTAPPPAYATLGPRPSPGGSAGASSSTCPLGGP
T2 sequence (P51168 1-640): T1 sequence (P51168 1-640)
T2 sequence (P51170 1-649): T1 sequence (P51170 1-649)

C[C@@H]1NC(=O)CNC(=O)[C@H](CCC(=O)O)NC(=O)[C@@H]2CCCN2C(=O)[C@H]([C@@H](C)O)NC(=O)[C@H](CCC(=O)O)NC(=O)[C@H](CCCNC(=N)N)NC(=O)[C@H](CCC(N)=O)NC(=O)CNC(=O)[C@@H](N)CSSC[C@@H](C(=O)O)NC(=O)[C@H](Cc2ccc(O)cc2)NC(=O)[C@H](Cc2c[nH]c3ccccc23)NC(=O)[C@@H]2CCCN2C(=O)[C@H](CCCCN)NC(=O)[C@H](C)NC(=O)[C@H](CCC(=O)O)NC1=O [AP301]
AP301 restored Na+ current (δG303Cβγ hENaC): 48.5 ± 8.2 pA
Inward current measured (amiloride-sensitive current) (αQ101Kβγ-hENaC; HEK-293, peptide concentration 220 nM, mean ± SE, n = 5, no peptide: loss-of-function, Table 2): 174.7 ± 8.7 pA
AP301 restored Na+ current (αQ101Kβγ-hENaC; HEK-293, whole cell patch clamp, no-peptide current: loss-of-function, Table 1): 79.1 ± 11.2 pA
